# Reference: the supplement of paper PMC8728848
# This is one part of the list.
# B1: Wzz (Escherichia coli) (protein)
# chain: MRTWKFPSVRVMMRVENNNVSGQNHDPEQIDLIDLLVQLWRGKMTIIISVIVAIVLAIGYLAVAKEKWTSTAIITQPDVGQIAGYNNAMNVIYGQAAPKVSDLQETLIGRFSSAFSALAETLDNQEEPEKLTIEPSVKNQQLPLTVSYVGQTAEGAQMKLAQYIQQVDDKVNQELEKDLKDNIALGRKNLQDSLRTQEVVAQEQKDLRIRQIQEALQYANQAQVTKPQIQQTGEDITQDTLFLLGSEALESMIKHEATRPLVFSSNYYQTRQNLLDIDNLDVDKLDIHAYLYVMKPTLPIRRDSPKKAITLILAVLLGGMVGAGIVLGRNALRNYNAK
# Legend:
# Assay in all cases: glycan array binding signal (z-score within array); higher = stronger binding
# Settings in all cases: glycan notation: IUPAC condensed, linker removed
# [1] = molecular target: Fuc(a1-2)[GalNAc(a1-3)]Gal(b1-3)GlcNAc(b1-6)GalNAc
# How it was run: (§1)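 Arrays were curated from the Consortium for Functional Glycomics database, 3228 in total, and kept only where the protein sequence was available. Binding is expressed as a within-array Z-score. This score was averaged across arrays of the same protein sequence at different concentrations or buffers and across linkers, and negative values can be read as non-binding.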
# [2] = molecular target: Fuc(a1-2)[GalNAc(a1-3)]Gal(b1-4)Glc
# How it was run: as §1
# [3] = molecular target: Fuc(a1-2)[GalNAc(a1-3)]Gal(b1-4)GlcNAc
# How it was run: as §1
# [4] = molecular target: Fuc(a1-2)[GalNAc(a1-3)]Gal(b1-4)GlcNAc(b1-2)Man
# How it was run: as §1
# [5] = molecular target: Fuc(a1-2)[GalNAc(a1-3)]Gal(b1-4)GlcNAc(b1-2)Man(a1-3)[Fuc(a1-2)[GalNAc(a1-3)]Gal(b1-4)GlcNAc(b1-2)Man(a1-6)]Man(b1-4)GlcNAc(b1-4)GlcNAc
# How it was run: as §1
# [6] = molecular target: Fuc(a1-2)[GalNAc(a1-3)]Gal(b1-4)GlcNAc(b1-2)Man(a1-3)[Fuc(a1-2)[GalNAc(a1-3)]Gal(b1-4)GlcNAc(b1-2)Man(a1-6)]Man(b1-4)GlcNAc(b1-4)[Fuc(a1-6)]GlcNAc
# How it was run: as §1
# [7] = molecular target: Fuc(a1-2)[GalNAc(a1-3)]Gal(b1-4)GlcNAc(b1-3)Gal(b1-4)GlcNAc
# How it was run: as §1
# [8] = molecular target: Fuc(a1-2)[GalNAc(a1-3)]Gal(b1-4)GlcNAc(b1-3)Gal(b1-4)GlcNAc(b1-3)Gal(b1-4)GlcNAc
# How it was run: as §1
# [9] = molecular target: Fuc(a1-2)[GalNAc(a1-3)]Gal(b1-4)GlcNAc(b1-3)GalNAc
# How it was run: as §1
# [10] = molecular target: Fuc(a1-2)[GalNAc(a1-3)]Gal(b1-4)GlcNAc(b1-3)[Fuc(a1-2)[GalNAc(a1-3)]Gal(b1-4)GlcNAc(b1-6)]GalNAc
# How it was run: as §1
# [11] = molecular target: Fuc(a1-2)[GalNAc(a1-3)]Gal(b1-4)GlcNAc(b1-6)GalNAc
# How it was run: as §1
# [12] = molecular target: Fuc(a1-2)[GalNAc(a1-3)]Gal(b1-4)[Fuc(a1-3)]GlcNAc
# How it was run: as §1
# [13] = molecular target: Fuc(a1-2)[GalNAc(a1-3)]Gal(b1-4)[Fuc(a1-3)]GlcNAc(b1-3)GalNAc
# How it was run: as §1
# [14] = molecular target: Fuc(a1-2)[GalNAc(a1-4)]Gal(b1-4)GlcNAc
# How it was run: as §1
# [15] = molecular target: Fuc(a1-2)[GalNAc(b1-3)]Gal
# How it was run: as §1
# Fuc(a1-3)GlcNAc = molecular target: Fuc(a1-3)GlcNAc
# How it was run: as §1
# [16] = molecular target: Fuc(a1-3)[Gal(b1-4)]Glc6S
# How it was run: as §1
# [17] = molecular target: Fuc(a1-3)[Gal(b1-4)]GlcNAc
# How it was run: as §1
# [18] = molecular target: Fuc(a1-3)[Gal(b1-4)]GlcNAc(b1-2)Man
# How it was run: as §1
# [19] = molecular target: Fuc(a1-3)[Gal(b1-4)]GlcNAc(b1-2)Man(a1-3)[Fuc(a1-3)[Gal(b1-4)]GlcNAc(b1-2)Man(a1-6)]Man(b1-4)GlcNAc(b1-4)GlcNAc
# How it was run: as §1
# [20] = molecular target: Fuc(a1-3)[Gal(b1-4)]GlcNAc(b1-2)Man(a1-3)[Fuc(a1-3)[Gal(b1-4)]GlcNAc(b1-2)Man(a1-6)]Man(b1-4)GlcNAc(b1-4)[Fuc(a1-6)]GlcNAc
# How it was run: as §1
# [21] = molecular target: Fuc(a1-3)[Gal(b1-4)]GlcNAc(b1-3)Gal(b1-3)[Fuc(a1-4)]GlcNAc
# How it was run: as §1
# [22] = molecular target: Fuc(a1-3)[Gal(b1-4)]GlcNAc(b1-3)Gal(b1-4)[Fuc(a1-3)]GlcNAc
# How it was run: as §1
# [23] = molecular target: Fuc(a1-3)[Gal(b1-4)]GlcNAc(b1-3)Gal(b1-4)[Fuc(a1-3)]GlcNAc(b1-3)Gal(b1-4)[Fuc(a1-3)]GlcNAc
# How it was run: as §1
# [24] = molecular target: Fuc(a1-3)[Gal(b1-4)]GlcNAc(b1-3)GalNAc
# How it was run: as §1
# [25] = molecular target: Fuc(a1-3)[Gal(b1-4)]GlcNAc(b1-6)GalNAc
# How it was run: as §1
# [26] = molecular target: Fuc(a1-3)[Gal(b1-4)]GlcNAc(b1-6)[Gal(b1-3)GlcNAc(b1-3)]Gal(b1-4)Glc
# How it was run: as §1
# [27] = molecular target: Fuc(a1-3)[Gal(b1-4)]GlcNAc6S
# How it was run: as §1
# [28] = molecular target: Fuc(a1-3)[Gal3S(b1-4)]Glc
# How it was run: as §1
# [29] = molecular target: Fuc(a1-3)[Gal3S(b1-4)]GlcNAc
# How it was run: as §1
# [30] = molecular target: Fuc(a1-3)[Gal3S(b1-4)]GlcNAc6S
# How it was run: as §1
# [31] = molecular target: Fuc(a1-3)[GalNAc(b1-4)]GlcNAc
# How it was run: as §1
# [32] = molecular target: Fuc(a1-3)[GalNAc(b1-4)]GlcNAc6S
# How it was run: as §1
# Fuc(a1-4)GlcNAc = molecular target: Fuc(a1-4)GlcNAc
# How it was run: as §1
# Fuc(b1-3)GlcNAc = molecular target: Fuc(b1-3)GlcNAc
# How it was run: as §1
# Gal(a1-2)Gal = molecular target: Gal(a1-2)Gal
# How it was run: as §1
# Gal(a1-3)Gal = molecular target: Gal(a1-3)Gal
# How it was run: as §1
binder,measurement,setting,value
B1,glycan array binding signal (z-score),[1],-1.24
same,glycan array binding signal (z-score),[2],-0.187
same,glycan array binding signal (z-score),[3],-0.731
same,glycan array binding signal (z-score),[4],-0.478
same,glycan array binding signal (z-score),[5],1.14
same,glycan array binding signal (z-score),[6],-0.158
same,glycan array binding signal (z-score),[7],-0.454
same,glycan array binding signal (z-score),[8],-0.168
same,glycan array binding signal (z-score),[9],0.134
same,glycan array binding signal (z-score),[10],0.421
same,glycan array binding signal (z-score),[11],-0.833
same,glycan array binding signal (z-score),[12],-0.666
same,glycan array binding signal (z-score),[13],0.633
same,glycan array binding signal (z-score),[14],0.333
same,glycan array binding signal (z-score),[15],0.765
same,glycan array binding signal (z-score),Fuc(a1-3)GlcNAc,-0.669
same,glycan array binding signal (z-score),[16],1.46
same,glycan array binding signal (z-score),[17],-0.033
same,glycan array binding signal (z-score),[18],-0.431
same,glycan array binding signal (z-score),[19],-0.298
same,glycan array binding signal (z-score),[20],0.922
same,glycan array binding signal (z-score),[21],-0.329
same,glycan array binding signal (z-score),[22],0.002
same,glycan array binding signal (z-score),[23],-0.043
same,glycan array binding signal (z-score),[24],-0.01
same,glycan array binding signal (z-score),[25],0.129
same,glycan array binding signal (z-score),[26],-0.703
same,glycan array binding signal (z-score),[27],0.36
same,glycan array binding signal (z-score),[28],-0.538
same,glycan array binding signal (z-score),[29],0.259
same,glycan array binding signal (z-score),[30],-0.588
same,glycan array binding signal (z-score),[31],-0.363
same,glycan array binding signal (z-score),[32],-0.34
same,glycan array binding signal (z-score),Fuc(a1-4)GlcNAc,-0.001
same,glycan array binding signal (z-score),Fuc(b1-3)GlcNAc,0.034
same,glycan array binding signal (z-score),Gal(a1-2)Gal,-0.57
same,glycan array binding signal (z-score),Gal(a1-3)Gal,1.22

# Some of the entries so far, with bars between the fields.
binder | measurement | setting | value
B1 | glycan array binding signal (z-score) | [16] | 1.46
same | glycan array binding signal (z-score) | [17] | -0.033
